From PubChem BioAssay AID588589 (The Scripps Research Institute Molecular Screening Center, 2011) come the findings set out here.

The source made the active and inactive calls. The rule behind the calls is not given here.

The assay has as its system Fam108b (ABHD17B) [Mus musculus], recombinant soluble. As to the kind of experiment: inhibition of soluble recombinant Fam108b, SAR follow-up, biochemical, gel-based ABPP, soluble form (AID 588589). As to conditions: fluorophosphonate probe, at 5 µM, stronger effect = higher value.

In the case of `Cc1ccc(-c2nc3c(cnn3-c3ccccc3)c(=O)o2)cc1`, the inhibition was inactive: 5%.
